Measurements published in article doi:10.1101/665984.

B1: His-tagged LSF (protein, UniProt Q12800 1-502)
chain: MAWALKLPLADEVIESGLVQDFDASLSGIGQELGAGAYSMSDVLALPIFKQEESSLPPDNENKILPFQYVLCAATSPAVKLHDETLTYLNQGQSYEIRMLDNRKLGELPEINGKLVKSIFRVVFHDRRLQYTEHQQLEGWRWNRPGDRILDIDIPMSVGIIDPRANPTQLNTVEFLWDPAKRTSVFIQVHCISTEFTMRKHGGEKGVPFRVQIDTFKENENGEYTEHLHSASCQIKVFKPKGADRKQKTDREKMEKRTPHEKEKYQPSYETTILTECSPWPEITYVNNSPSPGFNSSHSSFSLGEGNGSPNHQPEPPPPVTDNLLPTTTPQEAQQWLHRNRFSTFTRLFTNFSGADLLKLTRDDVIQICGPADGIRLFNALKGRMVRPRLTIYVCQESLQLREQQQQQQQQQQKHEDGDSNGTFFVYHAIYLEELTAVELTEKIAQLFSISPCQISQIYKQGPTGIHVLISDEMIQNFQEEACFILDTMKAETNDSYHIILK
B2: SET8 present in the purified bovine tubulin preparation (enzyme, UniProt Q2YDJ8 1-352)
chain: MARGRKMSKPRAVEAAAAAAAVAATAPGPEMVERRGPGRPRTNGENVFTGQSKIYTYMSPNKCSGMRSPLQEENSVAQYEVKCQGKPLAGIYRKRDEKRNSGNAIRSSMKAEEQKIKDARRGPLAPFPNQKSEAAEPPKTPTSSCDTPNAAAAKQGLKKPVRGKQAPRKKAQGKTQQNRKLTDFYPVRRSSRKSKAELQSEERKRIDELIESGKEEGMKIDLIDGKGRGVIATKQFSRGEFVVEYHGDLIEITDAKKREALYAQDPSTGCYMYYFQYLSKTYCVDATRETNRLGRLINHSKCGNCQTKLHDIDGVPHLILIASRDIEAGEELLYDYGDRSRASIEAYPWLKH

Experiments:
[1] = biological target: GST-SET8 N-terminal portion (human); assay: pull-down
[2] = biological target: >99% purified bovine tubulin (α/β-tubulin heterodimer) (bovine); assay: co-purification with tubulin, immunoblot

Binder	binding [1]	binding [2]
B1	binds	
B2		binds

No constants are given. Whether binding was seen depends on the method and setting. Binding can be weak; no strength is given. For some assays here: Tags and fused reporters may be left off the sequences shown. For some assays here: Binding seen in cells or lysates may run through a third protein.
